Source: patent US12378320B2, “Methods for treating pancreatitis” (Cold Spring Harbor Laboratory, priority 2018, dated 2025)

B1: P52196 (protein, UniProt P52196 1-297, looked up)
chain: MVHQVLYRALVSTKWLAESIRSGRLGPSLRVLDASWYSPGTRQARKEYQERHVPGASFFDIEECRDTTSPYEMMLPSEAHFGDYVGNLGISNDTHVVVYDGDDLGSFYAPRVWWMFRVFGHRTVSVLNGGFRNWLKEGHPVTSEPSRPEPAVFKATLNLSLLKTYEQVLENLQSKRFQLVDSRAQGRYLGTQPEPDIVGLDSGHIRGSVNMPFMDFLTKDGFEKSPEELRAIFQDKKVDLSQPLIATCRKGVTACHVALAAYLCGKPDVAVYDGSWSEWFRRAPPETRVSQGKSGKA
modifications: full-length
B2: Q9ERK4 (protein, UniProt Q9ERK4 1-971, looked up)
chain: MELSDANLQTLTEYLKKTLDPDPAIRRPAEKFLESVEGNQNYPLLLLTLLEKSQDNVIKVCASVTFKNYIKRNWRIVEDEPNKICEADRVAIKANIVHLMLSSPEQIQKQLSDAISIIGREDFPQKWPDLLTEMVNRFQSGDFHVINGVLRTAHSLFKRYRHEFKSNELWTEIKLVLDAFALPLTNLFKATIELCSTHANDASALRILFSSLILISKLFYSLNFQDLPEFFEDNMETWMNNFHTLLTLDNKLLQTDDEEEAGLLELLKSQICDNAALYAQKYDEEFQRYLPRFVTAIWNLLVTTGREVKYDLLVSNAIQFLASVCERPHYKNLFEDQNTLTSICEKVIVPNMEFRAADEEAFEDNSEEYIRRDLEGSDIDTRRRAACDLVRGLCKFFEGPVTGIFSGYVNSMLQEYAKNPSVNWKHKDAAIYLVTSLASKAQTQKHGITQANELVNLTEFFVNHILPDLKSNNVNEFPVLKADGIKYIMIFRNQVPKEHLLVSIPLLISHLEAESIVVHTYAAHALERLFTMRGSNNTTLFTAAEIAPFVEILLTNLFKALTLPGSSENEYIMKAIMRSFSLLQEAIIPYIPTLITQLTQKLLAVSKNPSKPHFNHYMFEAICLSIRITCKANPAAVVNFEEALFLVFTEILQNDVQEFIPYVFQVMSLLLETHKNDIPSSYMALFPHLLQPVLWERTGNIPALVRLLQAFLERGSSTIATAAADKIPGLLGVFQKLIASKANDHQGFYLLNSIIEHMPPESVDQYRKQIFILLFQRLQNSKTTKFIKSFLVFINLYCIKYGALALQEIFDGIQPKMFGMVLEKIIIPEIQKVSGNVEKKICAVGITKLLTECPPMMDTEYTKLWTPLLQSLIGLFELPEDDSIPDEEHFIDIEDTPGYQTAFSQLAFAGKKEHDPVGQMVNNPKIHLAQSLHKLSTACPGRVPSMVSTSLNAEALQYLQGYLQAASVTLL
modifications: full-length
B3: Q9CQ62 (protein, UniProt Q9CQ62 1-335, looked up)
chain: MALLGRAFFAGVSRLPCDPGPQRFFSFGTKTLYQSKDAPQSKFFQPVLKPMLPPDAFQGKVAFITGGGTGLGKAMTTFLSTLGAQCVIASRNIDVLKATAEEISSKTGNKVHAIRCDVRDPDMVHNTVLELIKVAGHPDVVINNAAGNFISPSERLTPNGWKTITDIVLNGTAYVTLEIGKQLIKAQKGAAFLAITTIYAESGSGFVMPSSSAKSGVEAMNKSLAAEWGRYGMRFNIIQPGPIKTKGAFSRLDPTGRFEKEMIDRIPCGRLGTMEELANLATFLCSDYASWINGAVIRFDGGEEVFLSGEFNSLKKVTKEEWDIIEGLIRKTKGS
modifications: full-length
B4: P19324 (protein, UniProt P19324 1-417, looked up)
chain: MRSLLLGTLCLLAVALAAEVKKPLEAAAPGTAEKLSSKATTLAERSTGLAFSLYQAMAKDQAVENILLSPLVVASSLGLVSLGGKATTASQAKAVLSAEKLRDEEVHTGLGELLRSLSNSTARNVTWKLGSRLYGPSSVSFADDFVRSSKQHYNCEHSKINFRDKRSALQSINEWASQTTDGKLPEVTKDVERTDGALLVNAMFFKPHWDEKFHHKMVDNRGFMVTRSYTVGVTMMHRTGLYNYYDDEKEKLQMVEMPLAHKLSSLIILMPHHVEPLERLEKLLTKEQLKAWMGKMQKKAVAISLPKGVVEVTHDLQKHLAGLGLTEAIDKNKADLSRMSGKKDLYLASVFHATAFEWDTEGNPFDQDIYGREELRSPKLFYADHPFIFLVRDNQSGSLLFIGRLVRPKGDKMRDEL
modifications: full-length
B5: O70310 (protein, UniProt O70310 1-496, looked up)
chain: MADESETAVKLPAPSLPLMMEGNGNGHEHCSDCENEEDNSHNRSGLSPANDTGAKKKKKKQKKKKEKGSDMESTQDQPVKMTSLPAERIQEIQKAIELFSVGQGPAKTMEEASKRSYQFWDTQPVPKLGEVVNTHGPVEPDKDNIRQEPYTLPQGFTWDALDLGDRGVLKELYTLLNENYVEDDDNMFRFDYSPEFLLWALRPPGWLPQWHCGVRVVSSRKLVGFISAIPANIHIYDTEKKMVEINFLCVHKKLRSKRVAPVLIREITRRVHLEGIFQAVYTAGVVLPKPVGTCRYWHRSLNPRKLIEVKFSHLSRNMTMQRTMKLYRLPETPKTAGLRPMEKKDIPVVHQLLSRYLKQFHLTPVMNQEEVEHWFYPQENIIDTFVVENANGEVTDFLSFYTLPSTIMNHPTHKSLKAAYSFYNVHTQTPLLDLMSDALVLAKMKGFDVFNALDLMENKTFLEKLKFGIGDGNLQYYLYNWKCPSMGAEKVGLVLQ
modifications: full-length
B6: Q922U2 (protein, UniProt Q922U2 1-580, looked up)
chain: MSRQSSVSFRSGGSRSFSAASAITPSVSRTSFSSVSRSGGGGGGRISLGGACGAGGYGSRSLYNVGGSKRISYSSGGGSFRNQFGAGGFGFGGGAGSGFGFGGGAGSGFGFGGGAGFGGGYGGAGFPVCPPGGIQEVTVNQNLLTPLNLQIDPTIQRVRTEEREQIKTLNNKFASFIDKVRFLEQQNKVLDTKWALLQEQGTKTIKQNLDPLFEQYINNLRRQLDGVLGERGRLDSELRNMQDLVEDYKNKYEDEINKRTTAENEFVMLKKDVDAAYMNKVELEARVDALMDEINFMKMFFDAELSQMQTHVSDTSVVLSMDNNRSLDLDSIIAEVKAQYEDIANRSRTEAESWYQTKYEELQQTAGRHGDDLRNTKHEISEMNRMIQRLRSEIDNVKKQCANLQNAIAEAEQRGELALKDARNKLTELEEALQKAKQDMARLLREYQELMNTKLALDVEIATYRKLLEGEECRLSGEGVGPVNISVVTNSVSSGYGGGSSIGVGSGFGGGLGSGFAGGLGPRFTRGGGGLGLGSGLSVGGSGFSAGSSQGGMSFGSGGGSGSSVKFVSTTSSSRRSFKS
modifications: full-length
B7: O70475 (protein, UniProt O70475 1-493, looked up)
chain: MVEIKKICCIGAGYVGGPTCSVIAHMCPEIRVTVVDVNEARINAWNSPTLPIYEPGLKEVVESCRGKNLFFSTNIDDAIREADLVFISVNTPTKTYGMGKGRAADLKYIEACARRIVQNSNGYKIVTEKSTVPVRAAESIRRIFDANTKPNLNLQVLSNPEFLAEGTAIKDLKNPDRVLIGGDETPEGQKAVRALCAVYEHWVPKEKILTTNTWSSELSKLAANAFLAQRISSINSISALCEATGADVEEVATAIGMDQRIGNKFLKASVGFGGSCFQKDVLNLVYLCEALNLPEVARYWQQVIDMNDYQRRRFASRIIDSLFNTVTDKKIAILGFAFKKDTGDTRESSSIYISKYLMDEGAHLHIYDPKVPREQIVVDLSHPGVSADDQVSRLVTISKDPYEACDGAHALVICTEWDMFKELDYERIHKKMLKPAFIFDGRRVLDGLHSELQTIGFQIETIGKKVSSKRIPYTPGEIPKFSLQDPPNKKPKV
modifications: full-length

These molecules were tested on CA19-9 modified proteins (assay: CA19-9 IP/MS (iTRAQ) of organoid conditioned media after Dox treatment). Conditions: A217 (genetic negative) organoids conditioned media, after 8 hours of treatment, CA19-9 IP with 5B1; relative to 17 0H NS19.
Parameters: species or system mouse

Row | Molecule | 17 8H 5B1
1 | B1 | 4.508
2 | B2 | 8.429
3 | B3 | 2.301
4 | B4 | 2.356

Same assay, conditions: A217 (genetic negative) organoids conditioned media, after 8 hours of treatment, CA19-9 IP with NS19-9; relative to 17 0H NS19

Row | Molecule | 17 8H NS19
5 | B1 | 0.484
6 | B2 | 0.669
7 | B3 | 0.557
8 | B4 | 0.505

Same assay, conditions: A217 (genetic negative) organoids conditioned media, before treatment (0H), CA19-9 IP with NS19-9; relative abundance, reference channel

Row | Molecule | 17 0H NS19
9 | B1 | 1
10 | B2 | 1
11 | B3 | 1
12 | B4 | 1

Same assay, conditions: A220 (C;R^LSL;F) organoids conditioned media, before treatment (0H), CA19-9 IP with 5B1; relative to 17 0H NS19

Row | Molecule | 20 0H 5B1
13 | B1 | 3.105
14 | B2 | 5.471
15 | B3 | 1.91
16 | B4 | 2.045

Same assay, conditions: CA19-9 IP/MS relative abundance; A217 (genetic negative) organoid conditioned media, 0H (before treatment), IP with NS19-9; reference channel = 1

Row | Molecule | 17 0H NS19
17 | B5 | 1
18 | B6 | 1
19 | B7 | 1

Same assay, conditions: CA19-9 IP/MS relative abundance; A217 (genetic negative) organoid conditioned media, after 8 hours, IP with 5B1

Row | Molecule | 17 8H 5B1
20 | B5 | 2.24
21 | B6 | 0.816
22 | B7 | 1.917

Same assay, conditions: CA19-9 IP/MS relative abundance; A217 (genetic negative) organoid conditioned media, after 8 hours, IP with NS19-9

Row | Molecule | 17 8H NS19
23 | B5 | 0.643
24 | B6 | 1.206
25 | B7 | 0.596

Same assay, conditions: CA19-9 IP/MS relative abundance; A220 (C;R^LSL;F) organoid conditioned media, 0H (before treatment), IP with 5B1

Row | Molecule | 20 0H 5B1
26 | B5 | 2.047
27 | B6 | 1.016
28 | B7 | 1.929
